Assay results as given in US20250171821A1, “HIF-1 ACTIVATORS AND USES THEREOF” (Ramot at Tel-Aviv University Ltd., priority 2022, published 2025).

System: HGF cells
Experiment: Autofluorescence control without antibodies
Format: cell-based, human
Settings: 5 μM ML228, without DAPI, β-tubulin and Collagen-I antibodies

## c1ccc(-c2ccc(CNc3nc(-c4ccccn4)nnc3-c3ccccc3)cc2)cc1 [ML228, N-([1,1′-Biphenyl]-4-ylmethyl)-6-phenyl-3-(2-pyridinyl)-1,2,4-triazin-5-amine]
  autofluorescence: does not impart any detectable autofluorescence; also recorded: does not have autofluorescence

Entries after “also recorded” stand apart in the source; their conditions may differ.
